Assay results: US11964020B2, “Method for removing acetaldehyde” (GE HEALTHCARE LIMITED, priority 2014, dated 2024)
Where a SMILES comes first, the peptide text is derived from it. Bridges are numbered along the chain shown (N, C = ends). The star is where a group is joined. X1 = O=C(CO)NCCOCCOCCOCCOCCOCCNC(=O)COCC(=O)*; X2 = NC(=O)COCC(=O)NCCOCCOCCOCCN*

Test: Quench/derivatisation of acetaldehyde in Fluciclatide (18F) Injection with aldehyde scavenger AH111695, AH111930 determined by HPLC
Format: physicochemical
Procedure: In an experiment to analyse the content of acetaldehyde in a Fluciclatide (^18F) Injection sample using HPLC, the acetaldeyde was derivatized to an UV absorbing fluciclatide analogue AH111930 using AH111695 (Scheme 1).
After 10 hours of decay, 0.5 ml sample of Fluciclatide (^18F) Injection was mixed with 0.5 ml of aqueous 1.6 mM AH111695/77.2 mM aniline HCl and heated to 60° C. for 30 min. […] In contrast, the amount of acetaldehyde in a control sample that was unquenched (i.e., no aldehyde scavenger AH111695 was added) was later determined by GC analysis to be 6.9 μg. The deviation between the HPLC and GC results is due to the higher sensitivity of the HPLC method over the GC method.

## N=C(N)NCCC[C@@H]1NC(=O)[C@@H]2CSSC[C@H](NC(=O)[C@H](CC(=O)O)NC(=O)CNC1=O)C(=O)N[C@@H](Cc1ccccc1)C(=O)N[C@H](C(=O)NCCOCCOCCOCCNC(=O)COCC(N)=O)CSCC(=O)N[C@@H](CCCCNC(=O)COCC(=O)NCCOCCOCCOCCOCCOCCNC(=O)CO)C(=O)N2 [AH111695] ({CH2CO}-K(X1)CRGDCFC-X2; disulfide 2-6; thioether N-8)
0.5 ml Fluciclatide (18F) Injection after 10 hours of decay + 0.5 ml aqueous 1.6 mM AH111695/77.2 mM aniline HCl, 60° C. for 30 min, molar content of AH111930 by HPLC
  amount of acetaldehyde quenched by AH111695: 7.6 µg/mL
HPLC result compared with GC of unquenched control
  quench of acetaldehyde by addition of the aldehyde scavenger: complete quench
